Experimental findings from paper PMC7862700 are described below.

The entries are a selection whose mix differs from that of the whole data set. At the low end of the ranking the order means little.

The target in the test is SPI1 (UniProt P17947). Kind of test: DAPPL (digital affinity profiling via proximity ligation, sequencing). The following applies: 10 mM Tris-HCl pH 7.5, 50 mM NaCl, 1 mM DTT, 4% glycerol, room temperature, 30 min; GST-TFs on glutathione beads, 16-mer random dsDNA library, 0.1% …; high values mean tight binding; double strand, one strand shown; scale: fold enrichment (6-mer frequency, TF over GST control).
For the sequence ACGCGT, the binding signal worked out at 0.922.

Sequence AGGAAC came in with a binding signal of 1.45. Sequence TGGCAC yielded a binding signal of 1.14. The sequence ATTTTG returned a binding signal of 1.31. The figure for GGATAA is 0.757; for GTCCGG it is 0.903; for ACAAAG it is 0.925. The sequence TGGCGT displayed a binding signal of 0.982. With ACCAAG, the binding signal was 0.883.

Sequence CATTTG gave a binding signal of 1.29. ATATCC yielded a binding signal of 2.43. For CATAAG the value was 0.937; for CCATCC, 1.31. In turn, GCTGCT gave a binding signal of 1.19. Take AGCGAA: the binding signal stood at 0.938.

The sequence AGAAGG came in with a binding signal of 0.715. Sequence ACACCG came in with a binding signal of 0.978.

As for CCGCTG, the binding signal was 0.986. As for TACGTC, the binding signal turned out to be 1.12.

In turn, ACTCAC gave a binding signal of 1.23. The figure for AGATAT is 0.972; for GGCATA it is 0.876. The figure for GCAACA is 0.872. Consider ATCCTT, for which the binding signal was 1.7. As for ATAGTC, the binding signal stood at 0.907. Turning to TAGATA, the binding signal was determined as 0.977. In turn, ACAAGT gave a binding signal of 0.819.

The sequence TCTTCG registered a binding signal of 1.47. The figure for CAAAGA is 0.989. For the sequence CACTGA, the binding signal turned out to be 0.996.

AGATGG showed a binding signal of 0.798. For TGGGCG the value was 0.941; for GATAGT, 0.751. With TGAGCT, the binding signal is 0.978.

The sequence ACAGCA had a binding signal of 0.951.

TCAGCC displayed a binding signal of 0.981. TGTCCG returned a binding signal of 1.2. The figure for CGCCAA is 1.04.

In the case of CGAGCA, the binding signal amounted to 0.993.
